{"source": "PubChem BioAssay AID2685", "about": "(National Center for Advancing Translational Sciences (NCATS), 2010)", "experiment": "qHTS Assay for Lipid Storage Modulators in Drosophila S3 Cells;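 as to cell number change: cells counted by Cell Tracker Red CMTPX staining in the red channel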", "conditions": "BODIPY lipid droplet fluorescence, 18-24 h; for cell number change: measured here: cell count max response, cells fed with added oleic acid", "in_short": "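Laser-scanning cytometry quantifies lipid droplet accumulation (500–530 nm total intensity; droplet/cell object ratio) in oleic acid-fed (400 uM added) Drosophila S3 cells treated with a concentration series. 20 uM Triacsin C defined 100% inhibition.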", "key": {"[1]": {"conditions": "measured here: lipid fluorescence (Fed channel) AC50, cells fed with added oleic acid"}, "[2]": {"conditions": "measured here: cell number channel AC50, cells fed with added oleic acid"}}, "note": "Some of the results follow. Shown are side measurements of this screen, not its main read-out; they come without a call. Compounds called inactive in the main read-out are mostly missing here. Potencies come from curve fits of mixed quality, noted in brackets.", "data": [{"smiles": "CN(C)S(=O)(=O)c1cc(C(=O)Nc2ccccc2C(=O)NC2CC2)ccc1Cl", "values": [{"measurement": "cell number change", "value": -17.3, "unit": "%"}, {"measurement": "AC50", "setting": "[1]", "value": "6.51 µM [falling, single point]"}]}, {"smiles": "COc1ccc(C(=O)NCCn2cc(SCC(=O)NCC3CCCO3)c3ccccc32)cc1", "note": "(stereo not given)", "values": [{"measurement": "cell number change", "value": 3.66, "unit": "%"}, {"measurement": "AC50", "setting": "[1]", "value": "10.3 µM [falling, single point]"}]}, {"smiles": "Cc1cc(CN(C)C(=O)CC2C(=O)NCCN2Cc2ccc(F)c(F)c2)on1", "note": "(stereo not given)", "values": [{"measurement": "cell number change", "value": 7.17, "unit": "%"}, {"measurement": "AC50", "setting": "[1]", "value": "3.26 µM [falling, partial curve]"}]}, {"smiles": "Cc1cc(C)c(Cn2c(=O)n(CCCC(=O)NCc3ccco3)c(=O)c3sccc32)c(C)c1", "values": [{"measurement": "cell number change", "value": -34.5, "unit": "%"}, {"measurement": "AC50", "setting": "[2]", "value": "14.6 µM [falling, single point]"}, {"measurement": "AC50", "setting": "[1]", "value": "3.26 µM [rising, full curve]"}]}, {"smiles": "COc1ccc(CNC(=S)Nc2ccccc2F)cc1", "values": [{"measurement": "cell number change", "value": -13, "unit": "%"}, {"measurement": "AC50", "setting": "[1]", "value": "5.8 µM [falling, full curve, poor fit]"}]}, {"smiles": "COc1ccc(S(=O)(=O)N2CCCC2)c(Cl)c1Cl", "values": [{"measurement": "cell number change", "value": -44.2, "unit": "%"}]}, {"smiles": "CCOC(=O)C1CCCN(Cc2ccccc2F)C1", "note": "(stereo not given)", "values": [{"measurement": "cell number change", "value": -2.46, "unit": "%"}, {"measurement": "AC50", "setting": "[1]", "value": "29.1 µM [rising, single point]"}]}, {"smiles": "CN1C(=O)c2ccc(C(=O)Nc3cccnc3)cc2C1=O", "values": [{"measurement": "cell number change", "value": 4.05, "unit": "%"}]}, {"smiles": "Cc1ccc(C(=O)Nc2sc3c(c2C(=O)NCc2ccco2)CCCC3)cc1", "values": [{"measurement": "cell number change", "value": -22.2, "unit": "%"}]}, {"smiles": "Cc1ccnc(N/C=C(/NC(=O)c2ccccc2)C(=O)NN)n1", "values": [{"measurement": "AC50", "setting": "[1]", "value": "0.58 µM [rising, single point]"}]}, {"smiles": "Cc1ccc(C(=O)C2CCN(CC(=O)NCc3ccc(F)cc3)CC2)cc1", "values": [{"measurement": "cell number change", "value": -17.9, "unit": "%"}]}, {"smiles": "CCOC(=O)C1CCN(S(=O)(=O)c2ccc3c(c2)CCCN3C(C)=O)CC1", "values": [{"measurement": "AC50", "setting": "[2]", "value": "6.51 µM [rising, single point]"}]}, {"smiles": "O=C(CNS(=O)(=O)c1ccc(Br)cc1Cl)OCC(=O)N1CCCC1=O", "values": [{"measurement": "cell number change", "value": -10.4, "unit": "%"}, {"measurement": "AC50", "setting": "[1]", "value": "7.31 µM [rising, partial curve]"}]}, {"smiles": "CC/C(=N\\NC(=O)c1nnn(-c2nonc2N)c1-c1cccc(OC)c1)c1ccc(C)cc1", "values": [{"measurement": "cell number change", "value": 21.2, "unit": "%"}, {"measurement": "AC50", "setting": "[1]", "value": "23.1 µM [rising, single point]"}]}, {"smiles": "Cc1ccccc1OC(C)c1nc(-c2ccccc2)no1", "note": "(stereo not given)", "values": [{"measurement": "cell number change", "value": 119, "unit": "%"}, {"measurement": "AC50", "setting": "[2]", "value": "18.4 µM [rising, partial curve]"}]}, {"smiles": "NC(=O)CSc1nnc(CSc2ncccn2)n1-c1ccccc1", "values": [{"measurement": "cell number change", "value": -13.7, "unit": "%"}, {"measurement": "AC50", "setting": "[1]", "value": "0.411 µM [falling, full curve]"}]}, {"smiles": "COc1ccc(C(CC(=O)O)NC(=O)C(c2ccccc2)c2ccccc2)cc1", "note": "(stereo not given)", "values": [{"measurement": "cell number change", "value": 42.3, "unit": "%"}, {"measurement": "AC50", "setting": "[2]", "value": "7.31 µM [rising, partial curve, poor fit]"}]}, {"smiles": "COc1ccc(N(CC(=O)NC2CC3CCC2C3)S(=O)(=O)c2ccccc2)cc1Cl", "note": "(stereo not given)", "values": [{"measurement": "cell number change", "value": -8.38, "unit": "%"}]}, {"smiles": "CC(C)(NC(=O)NC(CO)c1ccccc1)c1cccc(C(C)(C)NC(=O)NC(CO)c2ccccc2)c1", "note": "(stereo not given)", "values": [{"measurement": "cell number change", "value": 12.2, "unit": "%"}, {"measurement": "AC50", "setting": "[1]", "value": "0.231 µM [rising, full curve, poor fit]"}]}, {"smiles": "Cc1ccc(S(=O)(=O)N2CCCCC2)cc1NC(=O)c1ccc(Br)o1", "values": [{"measurement": "cell number change", "value": 10.8, "unit": "%"}, {"measurement": "AC50", "setting": "[2]", "value": "0.058 µM [rising, full curve, poor fit]"}, {"measurement": "AC50", "setting": "[1]", "value": "0.259 µM [rising, partial curve]"}]}, {"smiles": "Cc1c(NC(=O)CSc2nc3ccc(Cl)cc3[nH]2)c(=O)n(-c2ccccc2)n1C", "values": [{"measurement": "cell number change", "value": 42.3, "unit": "%"}, {"measurement": "AC50", "setting": "[2]", "value": "14.6 µM [rising, single point]"}]}, {"smiles": "[O-]/[N+](=C\\c1ccccc1)c1ccc(Br)cc1", "values": [{"measurement": "cell number change", "value": -38.8, "unit": "%"}, {"measurement": "AC50", "setting": "[2]", "value": "29.1 µM [falling, single point]"}, {"measurement": "AC50", "setting": "[1]", "value": "13 µM [falling, partial curve, poor fit]"}]}, {"smiles": "Cc1cccc(N(C)Cc2nnc(-c3cccc(Br)c3)o2)c1", "values": [{"measurement": "cell number change", "value": 19.4, "unit": "%"}, {"measurement": "AC50", "setting": "[1]", "value": "23.1 µM [falling, single point]"}]}, {"smiles": "CCN(CC(=O)Nc1ccc(OC)cc1)C(=O)c1cc2c(s1)CCCCC2", "values": [{"measurement": "cell number change", "value": 2.14, "unit": "%"}, {"measurement": "AC50", "setting": "[1]", "value": "0.206 µM [rising, full curve, poor fit]"}]}, {"smiles": "O=C(CCc1ccccn1)N1CCCC(N2CCN(c3ccc(F)cc3)CC2)C1", "note": "(stereo not given)", "values": [{"measurement": "cell number change", "value": -9.94, "unit": "%"}, {"measurement": "AC50", "setting": "[1]", "value": "0.13 µM [rising, full curve]"}]}, {"smiles": "O=C(O)C(Cc1ccc(O)cc1)N1C(=O)c2ccccc2C1=O", "note": "(stereo not given)", "values": [{"measurement": "cell number change", "value": -6.16, "unit": "%"}, {"measurement": "AC50", "setting": "[1]", "value": "4.61 µM [rising, single point]"}]}, {"smiles": "Cc1noc(C)c1COc1ccc(C(=O)OCC(=O)OC(C)(C)C)cc1", "values": [{"measurement": "cell number change", "value": -18.5, "unit": "%"}, {"measurement": "AC50", "setting": "[2]", "value": "0.259 µM [falling, full curve, poor fit]"}]}, {"smiles": "Clc1ccc(CNc2ccc(CNc3ncn[nH]3)cc2)cc1", "values": [{"measurement": "cell number change", "value": 78, "unit": "%"}, {"measurement": "AC50", "setting": "[2]", "value": "14.6 µM [rising, partial curve, poor fit]"}, {"measurement": "AC50", "setting": "[1]", "value": "0.82 µM [falling, full curve, poor fit]"}]}, {"smiles": "CC(c1ccccc1)N1C(=O)c2ccccc2C1(O)Cc1ccccc1", "note": "(stereo not given)", "values": [{"measurement": "cell number change", "value": -28.4, "unit": "%"}, {"measurement": "AC50", "setting": "[1]", "value": "20.6 µM [falling, single point]"}]}, {"smiles": "Cc1nc(NC(=O)c2cncc(Br)c2)ccc1Br", "values": [{"measurement": "cell number change", "value": 29.3, "unit": "%"}]}, {"smiles": "Cc1ccc(NCCC(=O)c2cccs2)cc1", "values": [{"measurement": "cell number change", "value": 15.5, "unit": "%"}, {"measurement": "AC50", "setting": "[1]", "value": "13 µM [rising, partial curve, poor fit]"}]}, {"smiles": "CCOC(=O)C(=CNc1ccc(NC2=NCC(C)S2)cc1)C(=O)OCC", "note": "(stereo not given)", "values": [{"measurement": "cell number change", "value": 114, "unit": "%"}, {"measurement": "AC50", "setting": "[2]", "value": "29.1 µM [rising, single point]"}, {"measurement": "AC50", "setting": "[1]", "value": "16.4 µM [rising, partial curve, poor fit]"}]}, {"smiles": "O=C(NC(=S)Nc1cccc2ncccc12)c1cccs1", "values": [{"measurement": "cell number change", "value": 5.62, "unit": "%"}, {"measurement": "AC50", "setting": "[1]", "value": "1.16 µM [rising, single point]"}]}, {"smiles": "CCCn1c(SCC(=O)Nc2c(C)cccc2C)nnc1C(C)C", "values": [{"measurement": "cell number change", "value": 7.54, "unit": "%"}, {"measurement": "AC50", "setting": "[1]", "value": "0.00461 µM [falling, full curve, poor fit]"}]}, {"smiles": "CC1CCCCN1C(=O)COC(=O)c1cccc(NS(=O)(=O)c2ccccc2)c1", "note": "(stereo not given)", "values": [{"measurement": "AC50", "setting": "[2]", "value": "2.06 µM [falling, partial curve]"}, {"measurement": "AC50", "setting": "[1]", "value": "2.91 µM [falling, partial curve]"}]}, {"smiles": "COc1ccc(CNC(=O)c2sc(=S)n(-c3ccccc3)c2N)cc1", "values": [{"measurement": "cell number change", "value": 8.42, "unit": "%"}, {"measurement": "AC50", "setting": "[1]", "value": "0.103 µM [rising, full curve, poor fit]"}]}, {"smiles": "O=C(CCS(=O)(=O)c1ccccc1)Nc1nncs1", "values": [{"measurement": "cell number change", "value": -0.435, "unit": "%"}, {"measurement": "AC50", "setting": "[1]", "value": "0.58 µM [falling, single point]"}]}, {"smiles": "COc1ccc(C(=O)NCC(c2ccco2)N(C)C)cc1S(=O)(=O)NCc1ccc(Cl)cc1", "note": "(stereo not given)", "values": [{"measurement": "cell number change", "value": 16.4, "unit": "%"}, {"measurement": "AC50", "setting": "[1]", "value": "0.731 µM [rising, full curve, poor fit]"}]}, {"smiles": "O=c1[nH]c(/C=C/c2ccc(Cl)cc2Cl)c([N+](=O)[O-])c(=O)[nH]1", "values": [{"measurement": "cell number change", "value": 3.72, "unit": "%"}, {"measurement": "AC50", "setting": "[1]", "value": "6.51 µM [falling, single point]"}]}]}
